## Library screen at single concentrations

Amino acid sequences for entries named in this document (tags omitted).
UniProt P9WNZ1, whole entry: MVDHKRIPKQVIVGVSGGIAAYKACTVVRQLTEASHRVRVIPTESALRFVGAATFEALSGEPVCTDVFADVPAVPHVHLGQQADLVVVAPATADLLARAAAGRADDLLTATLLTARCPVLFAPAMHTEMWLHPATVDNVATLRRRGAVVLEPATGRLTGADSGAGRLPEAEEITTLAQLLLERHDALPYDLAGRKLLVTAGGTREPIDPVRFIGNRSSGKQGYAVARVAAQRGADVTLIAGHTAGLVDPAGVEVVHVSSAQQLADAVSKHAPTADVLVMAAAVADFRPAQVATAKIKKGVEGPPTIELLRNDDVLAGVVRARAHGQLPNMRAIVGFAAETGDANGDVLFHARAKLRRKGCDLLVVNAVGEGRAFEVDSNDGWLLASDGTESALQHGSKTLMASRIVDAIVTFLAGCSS
UniProt P9WFT3, whole entry: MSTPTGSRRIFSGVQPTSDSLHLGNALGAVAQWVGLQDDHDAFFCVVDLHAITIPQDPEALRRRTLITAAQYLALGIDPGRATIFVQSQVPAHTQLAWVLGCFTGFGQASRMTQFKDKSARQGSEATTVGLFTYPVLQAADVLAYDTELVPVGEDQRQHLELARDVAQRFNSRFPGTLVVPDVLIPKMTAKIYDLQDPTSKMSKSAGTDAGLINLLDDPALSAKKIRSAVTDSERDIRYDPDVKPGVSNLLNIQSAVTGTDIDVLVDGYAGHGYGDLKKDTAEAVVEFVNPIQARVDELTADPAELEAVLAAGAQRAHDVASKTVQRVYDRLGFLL

Results are given as percent effect. How 0% and 100% were set is not recorded. Most values in the screen are low, and negative values occur. Compounds were drawn at random from those tested, without regard to their results. A dash means the value is not listed here; it may have been measured.

CoaBC: 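Enzyme assay of CoaBC with a phosphate dye (Biomol Green) read at 650 nm. Target: Coenzyme A biosynthesis protein CoaBC, Mycobacterium tuberculosis (UniProt P9WNZ1). Concentration: 30 µM. Direction is inferred from only a few compounds that gave an IC50; most scored high, so higher reads as stronger inhibition. Most strong results did not repeat in a second test. About 67,000 compounds were tested under these conditions; 0.06% (about 40) showed 50% or more at least once.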
MtTrpRS: 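Enzyme assay of tryptophanyl-tRNA synthetase; the read-out is not stated. Target: Tryptophan-tRNA ligase, Mycobacterium tuberculosis (UniProt P9WFT3). Tested at 10 µM. Direction is not recorded; retested compounds ran higher, which suggests that high means inhibition. Size under these conditions: about 65,000 compounds, about 64 of them at 50% or above in at least one test.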

structure,CoaBC,MtTrpRS
CC(C)CC(=O)N1CCCn2cnc(CNS(C)(=O)=O)c2C1,-7.16%,-2.45%
CSCC(=O)N[C@H]1CC[C@H](Nc2nccc(-c3cccnc3)n2)C1,0.2545%,1.242%
CN(C)C(=O)CN1C[C@@H]2CC[C@H](C1)N(Cc1cccc(Cl)c1Cl)C2,-32.47%,-1.891%
Cc1ncnc2c1CCN(C(=O)c1ccsc1)CC2,2.161%,-0.07628%
CCn1c(C2CCCN(Cc3cc(OC)cc(OC)c3)C2)nn(C)c1=O (stereo not shown),6.867%,-6.069%
Cc1occc1C(=O)NCC(=O)NCCOc1ccc2c(c1)CCC2,3.254%,-2.249%
CN1CCOCC2(CCCN(C(=O)Cc3ccncc3)C2)C1 (stereo not shown),0.6085%,0.9931%
NC(=O)N1CCC2(CC1)CN(c1ncccn1)CCO2,0.8653%,-3.108%
COCC(C)NC(=O)c1cc(Br)c2c(c1)OCCO2 (stereo not shown),6.389%,-1.267%
O=C(CCS(=O)(=O)C1CCCC1)NCc1ccccc1Cn1cncn1,0.6519%,-6.305%
COc1cccc(CN2C[C@@H]3COC[C@]3(COc3cccnc3)C2)c1,5.071%,-1.91%
Cc1nnc2n1CCN(CC(=O)N1CCc3ccccc3C1)C2,2.662%,18.77%
CO[C@H]1C[C@@H](O)C12CCN(C(=O)c1cccc(CCC(C)(C)O)c1)CC2,-3.204%,-1.31%
CCCC(C#N)NC(=O)c1sccc1CC (stereo not shown),4.854%,0.6056%
Cc1nc(CN2CCC(c3cc(N4CCCC4)ncn3)CC2)cs1,-4.97%,4.736%
CC(C)Nc1nc(N2CCCC2)nc2c1CN(C)CC2,6.289%,-9.84%
Cc1ccc(-c2nnn(CCN3C(=O)CCC3=O)n2)cc1,1.656%,0.5112%
CCC[C@@H]1CN(c2ncnc3sccc23)C[C@H]1NS(C)(=O)=O,2.232%,-8.359%
c1ccc(CN2CCCC(Cn3cncn3)C2)nc1 (stereo not shown),-4.075%,38.7%
Cc1ccc(C#N)c(N2CCC(c3nccn3Cc3cscn3)CC2)n1,3.125%,1.066%
CCCS(=O)(=O)N1C[C@@H]2CC[C@H](C1)N(Cc1cscn1)C2=O,-1.463%,-1.655%
CC(C)(C)n1ncc2c1CCCC2NCc1ccc2c(c1)OCCO2 (stereo not shown),7.977%,-4.81%
CN(CCc1ccccc1)Cc1c(C2CCNCC2)[nH]c2ncccc12,-39.47%,-4.373%
NCCC1CN(Cc2cnc3c(-c4ccccc4)cnn3c2)CCO1 (stereo not shown),-41.18%,5.973%
N#Cc1cccc(N2CCCC3(C2)CN(c2nncs2)CCO3)c1 (stereo not shown),-3.158%,9.163%
Cc1ccccc1-n1nccc1NC(=O)CCOC(C)C,11.98%,1.699%
CCc1oc(C(=O)N2CCC(N(CC)C(C)=O)C2)cc1CN(CC)CC (stereo not shown),-3.704%,-5.168%
COc1cccn(CC(=O)N(C)Cc2ccoc2)c1=O,10.54%,4.852%
Cc1ccccc1N1CCN(C(=O)c2cscn2)C(C)C1 (stereo not shown),1.587%,5.589%
COCCN1CCCn2c(nc(Cn3cncn3)cc2=O)C1,7.856%,-0.2513%
Nc1cnn(CC(=O)N2CCCCC2)c1,-1.115%,-
c1ccc(-c2cnc(CNCC3CCCN3c3cccnn3)o2)cc1 (stereo not shown),8.205%,0.3909%
Cc1[nH]nc(CCC(=O)N2C[C@H]3CC[C@@H]2CN(C(=O)N(C)C)C3)c1C,2.58%,-2.709%
Cc1ncc(-c2ccncc2)c(C2CCN(C(=O)c3ccno3)CC2)n1,-18.4%,11.61%
CCn1c(Cn2cncn2)nnc1C1CCN(Cc2ccc(C)o2)CC1,5.263%,-3.592%
Cc1nn(C)c(Cl)c1C1CCCN1Cc1ccc(C(N)=O)cc1 (stereo not shown),3.412%,-0.3438%
COc1cccc(CC(=O)N2CCCC2c2nc(C)c(F)c(O)n2)c1 (stereo not shown),4.38%,-2.145%
CC(O)CN(C)S(=O)(=O)c1ccc(C#N)cc1F (stereo not shown),0.4866%,-0.6536%
Cc1ccc(C(=O)N2CCC3(CCCC3)CC2)c(=O)[nH]1,2.689%,2.699%
CC(=O)NC1CCN(c2nc(C)nc3c2c(C)nn3C)C1 (stereo not shown),-,4.438%
CCC(CO)N(Cc1cccc(O)c1)Cc1ccccc1C (stereo not shown),10.91%,-0.7435%
CCCN1CCC[C@]2(CCC(=O)N2Cc2ccncc2)[C@H]1CC,-0.9009%,-8.285%
Cc1noc(C(C)N2CCN(CCOCC(F)(F)F)CC2)n1 (stereo not shown),4.608%,20.32%
CC(C)c1noc(-c2ccc(-n3cnc(C(=O)O)c3)nc2)n1,-6.604%,2.463%
Clc1ccc(C2(NCc3noc(C4CC4)n3)CCCC2)cc1,-3.187%,-7.736%
CCN(CCNC(=O)c1ccccc1Br)C1CC1,-0.2611%,0.09747%
CCNC(=O)[C@@H]1C[C@H](N)CN1Cc1ccc2cccc(Cl)c2n1,14.46%,1.257%
CCOCC1CN(C(=O)c2cnoc2C)Cc2cn(CC3CC3)nc21 (stereo not shown),-,-2.265%
CCc1cc(CNC(=O)N2Cc3ccccc3N(C)CC2C)[nH]n1 (stereo not shown),0.6424%,-2.767%
O=C(c1ccc(Cl)c(Cl)c1)N1CCCC(n2cncn2)C1 (stereo not shown),10.12%,-1.846%
CCn1c(C2CCCNC2)nn(CCn2cncn2)c1=O (stereo not shown),3.236%,3.936%
Nc1cc(-c2cncnc2C2CCN(C(=O)c3ccccc3)C2)ccn1 (stereo not shown),9.264%,-1.291%
NC(=O)c1ccc(NC(=O)CCN2CCCC(N3CCCC3)C2)cc1 (stereo not shown),4.348%,10.88%
Cc1noc(NCc2cn(C)nc2-c2ccncc2)n1,1.823%,2.412%

Once more, the final 4:

{"structure": "CCn1c(C2CCCNC2)nn(CCn2cncn2)c1=O", "stereo": "stereo not shown", "CoaBC": 3.236, "MtTrpRS": 3.936}
{"structure": "Nc1cc(-c2cncnc2C2CCN(C(=O)c3ccccc3)C2)ccn1", "stereo": "stereo not shown", "CoaBC": 9.264, "MtTrpRS": -1.291}
{"structure": "NC(=O)c1ccc(NC(=O)CCN2CCCC(N3CCCC3)C2)cc1", "stereo": "stereo not shown", "CoaBC": 4.348, "MtTrpRS": 10.88}
{"structure": "Cc1noc(NCc2cn(C)nc2-c2ccncc2)n1", "CoaBC": 1.823, "MtTrpRS": 2.412}

The values are deposited in ChEMBL (CHEMBL3988442, “University of Dundee, Small-Polar-MMV Screening Library” (2021)).